# Test results: the supplement of paper PMC7666118
# By UniProt entry, the sequences of proteins in these tests, tags left out. Where a name states a change or a piece, a line headed by the entry shows the natural chain unless it says otherwise.
# UniProt P41567, whole entry: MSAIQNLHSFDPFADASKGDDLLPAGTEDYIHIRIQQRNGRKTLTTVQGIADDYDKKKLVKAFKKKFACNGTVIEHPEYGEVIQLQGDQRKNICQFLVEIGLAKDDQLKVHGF
# UniProt O43324: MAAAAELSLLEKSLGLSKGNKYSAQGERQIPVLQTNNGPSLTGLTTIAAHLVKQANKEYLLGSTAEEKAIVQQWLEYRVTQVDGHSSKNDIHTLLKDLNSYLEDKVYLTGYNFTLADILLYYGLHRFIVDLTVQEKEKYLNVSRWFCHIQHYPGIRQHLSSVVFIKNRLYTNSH
# UniProt Q9NPA8: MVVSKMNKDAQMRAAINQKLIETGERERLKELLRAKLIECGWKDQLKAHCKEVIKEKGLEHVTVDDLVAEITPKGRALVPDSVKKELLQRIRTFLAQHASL
# UniProt Q13011: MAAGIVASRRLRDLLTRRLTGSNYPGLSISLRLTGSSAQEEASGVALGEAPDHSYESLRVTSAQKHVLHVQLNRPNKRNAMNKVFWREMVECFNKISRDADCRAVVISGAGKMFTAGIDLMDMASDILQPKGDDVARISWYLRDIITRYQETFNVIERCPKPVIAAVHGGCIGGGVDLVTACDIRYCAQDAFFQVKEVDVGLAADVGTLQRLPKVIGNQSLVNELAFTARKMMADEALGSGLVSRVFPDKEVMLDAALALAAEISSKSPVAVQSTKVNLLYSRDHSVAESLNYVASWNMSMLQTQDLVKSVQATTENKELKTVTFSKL
# UniProt O75822, whole entry: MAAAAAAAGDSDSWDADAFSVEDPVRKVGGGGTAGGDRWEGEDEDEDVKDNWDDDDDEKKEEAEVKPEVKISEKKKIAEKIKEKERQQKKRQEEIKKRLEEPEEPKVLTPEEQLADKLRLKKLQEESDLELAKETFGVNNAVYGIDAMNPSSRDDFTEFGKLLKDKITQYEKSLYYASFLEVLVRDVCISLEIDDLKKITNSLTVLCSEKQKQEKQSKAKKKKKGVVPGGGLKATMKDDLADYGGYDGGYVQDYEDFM
# UniProt Q92608: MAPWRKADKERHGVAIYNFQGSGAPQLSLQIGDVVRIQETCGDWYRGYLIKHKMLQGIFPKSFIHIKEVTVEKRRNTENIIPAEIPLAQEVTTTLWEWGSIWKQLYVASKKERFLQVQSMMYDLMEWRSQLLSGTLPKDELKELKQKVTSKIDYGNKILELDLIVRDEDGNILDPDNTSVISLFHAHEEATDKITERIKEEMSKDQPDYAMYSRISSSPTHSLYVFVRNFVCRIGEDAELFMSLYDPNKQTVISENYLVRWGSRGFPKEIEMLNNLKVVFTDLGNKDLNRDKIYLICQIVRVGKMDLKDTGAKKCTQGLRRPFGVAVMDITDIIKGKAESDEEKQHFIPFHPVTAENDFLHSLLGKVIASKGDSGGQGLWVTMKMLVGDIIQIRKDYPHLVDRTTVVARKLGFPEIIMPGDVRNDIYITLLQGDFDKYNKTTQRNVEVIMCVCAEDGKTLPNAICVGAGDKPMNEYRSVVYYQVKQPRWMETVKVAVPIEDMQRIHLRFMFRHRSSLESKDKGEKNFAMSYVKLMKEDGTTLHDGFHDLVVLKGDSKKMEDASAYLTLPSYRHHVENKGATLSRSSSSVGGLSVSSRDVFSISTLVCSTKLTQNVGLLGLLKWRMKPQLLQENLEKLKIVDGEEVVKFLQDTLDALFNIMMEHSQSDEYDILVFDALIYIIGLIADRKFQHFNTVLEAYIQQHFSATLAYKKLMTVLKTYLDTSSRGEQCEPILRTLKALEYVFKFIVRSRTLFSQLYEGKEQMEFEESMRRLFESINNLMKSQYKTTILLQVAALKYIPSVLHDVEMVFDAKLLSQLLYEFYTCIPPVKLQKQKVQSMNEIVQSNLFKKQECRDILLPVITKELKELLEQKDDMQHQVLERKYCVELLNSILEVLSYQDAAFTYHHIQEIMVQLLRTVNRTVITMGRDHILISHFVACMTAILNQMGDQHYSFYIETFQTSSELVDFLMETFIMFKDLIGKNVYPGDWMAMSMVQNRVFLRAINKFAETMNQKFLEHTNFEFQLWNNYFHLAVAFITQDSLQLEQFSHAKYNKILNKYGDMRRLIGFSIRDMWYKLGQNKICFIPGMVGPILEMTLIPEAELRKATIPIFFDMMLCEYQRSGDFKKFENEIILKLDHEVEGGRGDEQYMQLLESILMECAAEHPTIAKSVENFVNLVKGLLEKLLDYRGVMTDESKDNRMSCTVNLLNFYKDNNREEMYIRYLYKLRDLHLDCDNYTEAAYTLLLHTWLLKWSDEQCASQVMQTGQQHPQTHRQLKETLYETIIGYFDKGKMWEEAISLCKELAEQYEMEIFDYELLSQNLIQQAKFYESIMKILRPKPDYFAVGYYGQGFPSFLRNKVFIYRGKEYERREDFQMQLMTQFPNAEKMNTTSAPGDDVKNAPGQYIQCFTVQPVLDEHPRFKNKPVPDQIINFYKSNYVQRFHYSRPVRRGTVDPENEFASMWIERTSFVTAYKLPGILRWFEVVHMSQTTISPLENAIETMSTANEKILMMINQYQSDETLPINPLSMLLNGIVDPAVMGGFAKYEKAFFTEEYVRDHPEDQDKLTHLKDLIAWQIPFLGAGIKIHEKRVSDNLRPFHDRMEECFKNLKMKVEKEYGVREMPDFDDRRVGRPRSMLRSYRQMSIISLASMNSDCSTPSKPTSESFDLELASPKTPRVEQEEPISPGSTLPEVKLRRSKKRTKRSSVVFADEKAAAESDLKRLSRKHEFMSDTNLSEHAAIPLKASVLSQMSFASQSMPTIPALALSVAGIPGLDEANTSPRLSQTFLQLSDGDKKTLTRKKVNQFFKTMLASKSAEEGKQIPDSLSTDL
# UniProt Q9NZ08: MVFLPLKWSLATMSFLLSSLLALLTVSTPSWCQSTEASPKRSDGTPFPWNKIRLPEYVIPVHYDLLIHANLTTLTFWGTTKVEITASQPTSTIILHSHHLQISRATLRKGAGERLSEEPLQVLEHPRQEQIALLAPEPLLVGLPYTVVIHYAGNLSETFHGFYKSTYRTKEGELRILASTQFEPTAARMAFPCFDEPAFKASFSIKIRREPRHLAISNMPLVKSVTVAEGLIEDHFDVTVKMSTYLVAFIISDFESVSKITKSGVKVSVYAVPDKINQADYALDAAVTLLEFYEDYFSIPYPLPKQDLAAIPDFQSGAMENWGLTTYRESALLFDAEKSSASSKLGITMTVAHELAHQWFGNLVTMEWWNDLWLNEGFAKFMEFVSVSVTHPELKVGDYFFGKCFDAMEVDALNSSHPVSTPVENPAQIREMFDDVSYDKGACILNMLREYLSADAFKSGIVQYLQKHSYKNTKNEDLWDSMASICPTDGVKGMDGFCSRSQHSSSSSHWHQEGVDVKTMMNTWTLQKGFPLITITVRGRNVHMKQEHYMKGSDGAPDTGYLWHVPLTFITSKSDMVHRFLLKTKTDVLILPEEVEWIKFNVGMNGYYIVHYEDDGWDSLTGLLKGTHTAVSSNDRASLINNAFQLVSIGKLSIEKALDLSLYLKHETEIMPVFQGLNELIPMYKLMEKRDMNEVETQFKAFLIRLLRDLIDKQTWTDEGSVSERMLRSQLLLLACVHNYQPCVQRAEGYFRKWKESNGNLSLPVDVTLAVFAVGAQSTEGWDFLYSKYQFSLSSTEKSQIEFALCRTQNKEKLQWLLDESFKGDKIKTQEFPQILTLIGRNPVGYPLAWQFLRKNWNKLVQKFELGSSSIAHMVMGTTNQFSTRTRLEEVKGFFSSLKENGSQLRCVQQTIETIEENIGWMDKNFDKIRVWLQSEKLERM
# UniProt Q9BQ52: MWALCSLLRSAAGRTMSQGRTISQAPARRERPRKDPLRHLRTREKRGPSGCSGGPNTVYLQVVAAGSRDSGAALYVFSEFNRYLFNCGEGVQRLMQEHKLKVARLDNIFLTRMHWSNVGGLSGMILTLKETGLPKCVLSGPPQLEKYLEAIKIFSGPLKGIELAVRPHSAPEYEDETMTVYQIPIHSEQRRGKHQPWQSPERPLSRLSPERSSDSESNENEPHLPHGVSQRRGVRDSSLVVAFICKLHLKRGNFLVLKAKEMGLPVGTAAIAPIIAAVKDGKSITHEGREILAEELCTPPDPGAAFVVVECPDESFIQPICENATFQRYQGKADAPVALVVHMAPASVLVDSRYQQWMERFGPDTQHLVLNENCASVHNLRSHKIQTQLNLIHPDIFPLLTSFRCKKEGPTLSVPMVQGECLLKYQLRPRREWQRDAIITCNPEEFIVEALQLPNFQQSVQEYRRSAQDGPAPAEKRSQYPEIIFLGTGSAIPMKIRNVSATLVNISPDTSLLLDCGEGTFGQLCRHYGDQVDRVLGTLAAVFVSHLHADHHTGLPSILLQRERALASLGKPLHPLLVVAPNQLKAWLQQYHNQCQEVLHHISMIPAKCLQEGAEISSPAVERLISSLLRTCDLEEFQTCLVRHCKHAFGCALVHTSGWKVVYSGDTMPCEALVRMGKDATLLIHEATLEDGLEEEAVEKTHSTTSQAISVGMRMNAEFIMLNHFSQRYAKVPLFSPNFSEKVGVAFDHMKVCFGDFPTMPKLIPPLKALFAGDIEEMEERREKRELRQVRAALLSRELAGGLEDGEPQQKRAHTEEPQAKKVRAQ
# UniProt Q8TCX1: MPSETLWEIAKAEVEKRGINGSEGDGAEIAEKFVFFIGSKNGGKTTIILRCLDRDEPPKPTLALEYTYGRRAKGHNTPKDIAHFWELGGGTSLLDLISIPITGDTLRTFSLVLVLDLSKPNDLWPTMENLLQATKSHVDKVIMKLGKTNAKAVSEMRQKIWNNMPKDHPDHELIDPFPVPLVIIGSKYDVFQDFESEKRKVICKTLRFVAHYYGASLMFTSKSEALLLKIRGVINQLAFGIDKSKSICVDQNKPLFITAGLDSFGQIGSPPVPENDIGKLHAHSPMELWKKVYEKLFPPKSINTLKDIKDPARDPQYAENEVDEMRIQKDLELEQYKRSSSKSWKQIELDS
# UniProt Q6P2E9: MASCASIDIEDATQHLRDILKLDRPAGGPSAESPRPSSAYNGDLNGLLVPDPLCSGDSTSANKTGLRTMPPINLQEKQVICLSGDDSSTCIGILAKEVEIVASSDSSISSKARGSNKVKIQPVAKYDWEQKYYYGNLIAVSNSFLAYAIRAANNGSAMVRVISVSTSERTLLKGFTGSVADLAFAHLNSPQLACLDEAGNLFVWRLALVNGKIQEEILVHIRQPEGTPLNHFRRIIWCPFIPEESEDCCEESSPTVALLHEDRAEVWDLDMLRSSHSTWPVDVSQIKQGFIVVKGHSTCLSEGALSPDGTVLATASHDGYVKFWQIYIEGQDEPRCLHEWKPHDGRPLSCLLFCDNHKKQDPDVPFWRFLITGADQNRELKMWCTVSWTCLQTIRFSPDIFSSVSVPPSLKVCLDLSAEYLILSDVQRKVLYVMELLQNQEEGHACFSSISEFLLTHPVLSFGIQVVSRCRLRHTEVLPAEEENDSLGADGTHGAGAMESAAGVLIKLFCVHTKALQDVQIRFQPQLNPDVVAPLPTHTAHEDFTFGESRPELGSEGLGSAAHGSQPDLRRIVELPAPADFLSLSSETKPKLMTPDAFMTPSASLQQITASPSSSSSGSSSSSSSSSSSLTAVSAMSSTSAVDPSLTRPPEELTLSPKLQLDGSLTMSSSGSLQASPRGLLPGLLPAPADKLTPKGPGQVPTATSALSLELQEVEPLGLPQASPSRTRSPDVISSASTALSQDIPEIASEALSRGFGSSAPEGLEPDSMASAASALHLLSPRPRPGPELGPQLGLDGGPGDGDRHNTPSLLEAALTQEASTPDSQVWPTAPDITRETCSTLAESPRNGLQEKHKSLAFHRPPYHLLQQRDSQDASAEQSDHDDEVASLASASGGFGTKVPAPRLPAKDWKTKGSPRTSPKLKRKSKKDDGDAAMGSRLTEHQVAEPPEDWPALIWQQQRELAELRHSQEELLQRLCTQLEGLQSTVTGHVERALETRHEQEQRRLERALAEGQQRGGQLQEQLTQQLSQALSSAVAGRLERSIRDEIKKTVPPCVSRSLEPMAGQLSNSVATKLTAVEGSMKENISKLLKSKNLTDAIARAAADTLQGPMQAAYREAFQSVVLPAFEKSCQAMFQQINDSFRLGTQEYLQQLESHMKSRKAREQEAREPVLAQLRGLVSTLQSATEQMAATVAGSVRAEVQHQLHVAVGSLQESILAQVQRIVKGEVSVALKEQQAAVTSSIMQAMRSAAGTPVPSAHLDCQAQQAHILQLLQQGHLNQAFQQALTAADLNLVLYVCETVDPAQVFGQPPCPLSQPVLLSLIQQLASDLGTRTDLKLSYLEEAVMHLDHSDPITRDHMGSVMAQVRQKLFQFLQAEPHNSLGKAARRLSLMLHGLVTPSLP
# UniProt Q9UM22: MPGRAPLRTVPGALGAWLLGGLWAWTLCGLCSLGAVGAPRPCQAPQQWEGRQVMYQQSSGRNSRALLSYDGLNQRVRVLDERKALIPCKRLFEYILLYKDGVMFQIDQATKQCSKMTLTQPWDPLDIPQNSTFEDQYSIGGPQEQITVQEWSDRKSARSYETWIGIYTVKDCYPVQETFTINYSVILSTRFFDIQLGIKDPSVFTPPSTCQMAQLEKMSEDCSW
# Some of the results follow.
# Compound: COc1ccc(Cn2ccc3ccc(C(=O)NO)cc32)cc1
# Assay: dose-dependent thermal stabilisation call (2D-TPP, DLPTP, 10% FDR) (binary (1 = stabilised)); higher = stabilised by the compound
# Details: system: HL-60 intact cells; concentration range 0.04-10 µM
row,Target,dose-dependent thermal stabilisation call
1,ESF1 (UniProt Q9H501),inactive: 0
2,DVL2 (UniProt O14641),inactive: 0
3,DST (UniProt Q03001),inactive: 0
4,DUS2L (UniProt Q9NX74),inactive: 0
5,EIF1 (UniProt P41567),inactive: 0
6,EP300 (UniProt Q09472),inactive: 0
7,DTL (UniProt Q9NZJ0),inactive: 0
8,EEF1E1 (UniProt O43324),inactive: 0
9,EIF3I (UniProt Q13347),inactive: 0
10,ERCC8 (UniProt Q13216),inactive: 0
11,DLGAP5 (UniProt Q15398),inactive: 0
12,ENY2 (UniProt Q9NPA8),inactive: 0
13,ECH1 (UniProt Q13011),inactive: 0
14,ELP3 (UniProt Q9H9T3),inactive: 0
15,DYNC2H1 (UniProt Q8NCM8),inactive: 0
16,ELP4 (UniProt Q96EB1),inactive: 0
17,ERI3 (UniProt O43414),inactive: 0
18,EIF3J (UniProt O75822),active: 1
19,ECE1 (UniProt P42892),inactive: 0

row,Target,dose-dependent thermal stabilisation call
1,DUS3L (UniProt Q96G46),inactive: 0
2,ENOSF1 (UniProt Q7L5Y1),active: 1
3,DOCK2 (UniProt Q92608),inactive: 0
4,ERAP1 (UniProt Q9NZ08),inactive: 0
5,ELAC2 (UniProt Q9BQ52),inactive: 0
6,DNAJC9 (UniProt Q8WXX5),inactive: 0
7,DOPEY2 (UniProt Q9Y3R5),inactive: 0
8,DNTTIP2 (UniProt Q5QJE6),inactive: 0
9,EBP (UniProt Q15125),inactive: 0
10,DYNC2LI1 (UniProt Q8TCX1),inactive: 0
11,DOCK8 (UniProt Q8NF50),inactive: 0
12,EHBP1L1 (UniProt Q8N3D4),inactive: 0
13,DMAP1 (UniProt Q9NPF5),inactive: 0
14,EDC4 (UniProt Q6P2E9),inactive: 0
15,EMG1 (UniProt Q92979),active: 1
16,EPDR1 (UniProt Q9UM22),inactive: 0
17,ERCC2 (UniProt P18074),inactive: 0
18,EIF5A2 (UniProt Q9GZV4),inactive: 0

# A run of entries taken from the entries so far, as a working copy:
row,Target,dose-dependent thermal stabilisation call
11,DOCK8 (UniProt Q8NF50),inactive: 0
12,EHBP1L1 (UniProt Q8N3D4),inactive: 0
13,DMAP1 (UniProt Q9NPF5),inactive: 0
